Data source: PubChem BioAssay AID1259254 (NCATS, 2017)

- Aim: 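Genome-wide screen for genes that prevent DNA re-replication in cancer cells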 (primary screen)
- Cells: human HCT116 colorectal cancer cells
- Reagent: single siRNA against human genes
- Time to read-out: 3 days
- Detection: 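Nuclei stained with Hoechst and imaged; cell-cycle phase assigned by DNA content; G2 share scaled per plate, non-targeting siRNA 0%, GMNN siRNA 100%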
- Scale: G2 robust z-score: higher = more G2 cells, more excess DNA replication
- Active means: 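Active siRNAs have a G2 robust z of 5 or more median absolute deviations over the median, which in these data means about 38% or higher of GMNN control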
Here is an unselected part of about 59,000 deposited reagents. About 1,550 of them (2.6%) were called active. 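G2 share is only a proxy for re-replication; each gene was hit by three separate siRNAs, and active genes were retested.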 Not all columns of the deposit are shown. Not given: the amount of reagent.

How did the screen score TMPRSS11B [SID160757189]?
G2 robust z-score: 0.0297; Call: inactive

How did the screen score TMPRSS11B [SID160757190]?
G2 robust z-score: 2.17; Call: inactive

How did the screen score TMPRSS11B [SID160757191]?
G2 robust z-score: -0.62; Call: inactive

With NTAN1 [SID160732394], what does the deposit list?
G2 robust z-score: -0.376; Call: inactive

What did the screen give for NTAN1 [SID160756104]?
G2 robust z-score: -0.253; Call: inactive

What did the screen give for NTAN1 [SID160756106]?
G2 robust z-score: -0.649; Call: inactive

Look-ups from the entries so far.
Value for TMPRSS11B [SID160757191] in “G2 robust z-score”: -0.62
For “G2 robust z-score”, NTAN1 [SID160756106] reads -0.649

More reagents follow:
With MYH7 [SID160777664], what was measured?
G2 robust z-score: 4.12; Call: inactive

How did the screen score MYH7 [SID160777665]?
G2 robust z-score: 0.601; Call: inactive

Which result is listed for MYH7 [SID160777666]?
G2 robust z-score: -0.896; Call: inactive

With EFNA2 [SID160723740], how do the results read?
G2 robust z-score: -0.0418; Call: inactive

Which result is listed for EFNA2 [SID160723742]?
G2 robust z-score: 7.97; Call: active

What did the screen give for EFNA2 [SID160730744]?
G2 robust z-score: 4.31; Call: inactive

What did the screen give for GPR157 [SID160724558]?
G2 robust z-score: 1.52; Call: inactive

Which result is listed for GPR157 [SID160750006]?
G2 robust z-score: 2.09; Call: inactive

What is on record for GPR157 [SID160750007]?
G2 robust z-score: -0.808; Call: inactive

For STXBP2 [SID160717516], what was measured?
G2 robust z-score: 1.46; Call: inactive

How did the screen score STXBP2 [SID160717517]?
G2 robust z-score: 6.78; Call: active

With STXBP2 [SID160734201], how do the results read?
G2 robust z-score: -0.543; Call: inactive
